These are yes or no findings as the source states them, for the method shown. Binding seen in cells or lysates may run through a third protein.
Biological target: FLAG-hnRNPUL1^RK (R612K, R618K, R620K, R639K, R645K, R656K and R661K) (human) (UniProt Q9BUJ2)
Assay: co-IP; anti-FLAG immunoprecipitation from lysates of transfected HEK293 cells (50 mM HEPES pH 7.4, 150 mM NaCl, 1% Triton X-100; protein A Sepharose), blot for endogenous PRMT1

Amino acid sequences for entries named in this document (tags omitted). A change or cut given only in a name is not applied to a line headed by its entry. Chains listed by the source or under a name are the forms on record and can include a tag or linker.
FLAG-hnRNPUL1^RK (R612K, R618K, R620K, R639K, R645K, R656K and R661K) (Q9BUJ2, form named): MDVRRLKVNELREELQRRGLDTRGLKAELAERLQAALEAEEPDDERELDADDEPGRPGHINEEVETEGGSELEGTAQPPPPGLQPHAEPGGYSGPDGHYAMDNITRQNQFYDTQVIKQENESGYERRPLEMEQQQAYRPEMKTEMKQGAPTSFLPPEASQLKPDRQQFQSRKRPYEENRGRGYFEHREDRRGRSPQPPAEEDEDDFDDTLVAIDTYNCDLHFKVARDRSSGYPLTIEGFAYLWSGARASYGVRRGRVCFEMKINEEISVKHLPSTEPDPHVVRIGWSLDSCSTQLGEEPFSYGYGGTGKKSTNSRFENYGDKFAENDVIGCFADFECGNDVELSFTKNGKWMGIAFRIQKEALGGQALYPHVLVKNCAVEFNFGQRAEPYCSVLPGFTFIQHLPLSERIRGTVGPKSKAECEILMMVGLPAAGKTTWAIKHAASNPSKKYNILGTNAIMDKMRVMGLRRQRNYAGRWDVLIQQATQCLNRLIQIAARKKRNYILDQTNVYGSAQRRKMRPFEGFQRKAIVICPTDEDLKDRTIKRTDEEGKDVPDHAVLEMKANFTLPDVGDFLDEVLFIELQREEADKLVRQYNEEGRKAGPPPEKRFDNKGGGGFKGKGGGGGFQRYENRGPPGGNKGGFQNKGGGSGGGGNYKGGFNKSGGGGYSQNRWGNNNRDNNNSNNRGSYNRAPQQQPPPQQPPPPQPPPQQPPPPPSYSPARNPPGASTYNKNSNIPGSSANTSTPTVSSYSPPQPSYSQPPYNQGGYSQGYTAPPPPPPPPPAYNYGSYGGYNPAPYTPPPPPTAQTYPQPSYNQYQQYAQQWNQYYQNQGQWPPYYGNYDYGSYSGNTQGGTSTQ
UniProt Q99873: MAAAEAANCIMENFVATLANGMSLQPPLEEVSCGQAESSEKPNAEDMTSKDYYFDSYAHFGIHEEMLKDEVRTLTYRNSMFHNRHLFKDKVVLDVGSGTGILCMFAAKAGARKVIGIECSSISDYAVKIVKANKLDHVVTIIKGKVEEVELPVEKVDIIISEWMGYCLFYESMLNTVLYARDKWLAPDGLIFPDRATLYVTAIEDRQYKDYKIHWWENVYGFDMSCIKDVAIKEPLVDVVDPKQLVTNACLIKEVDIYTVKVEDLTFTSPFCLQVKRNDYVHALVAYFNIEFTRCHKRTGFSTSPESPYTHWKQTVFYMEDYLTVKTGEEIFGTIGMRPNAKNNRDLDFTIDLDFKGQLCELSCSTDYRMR

binding: no binding
Substance: protein arginine methyltransferase 1 (PRMT1), endogenous (from UniProt Q99873 1-371) (enzyme)

Reference: paper PMC4447065
